Here are results for 3 molecules from article PMC8905163.

By UniProt entry, the sequences of proteins in these tests, tags left out. Where a name states a change or a piece, a line headed by the entry shows the natural chain unless it says otherwise.
UniProt P30052: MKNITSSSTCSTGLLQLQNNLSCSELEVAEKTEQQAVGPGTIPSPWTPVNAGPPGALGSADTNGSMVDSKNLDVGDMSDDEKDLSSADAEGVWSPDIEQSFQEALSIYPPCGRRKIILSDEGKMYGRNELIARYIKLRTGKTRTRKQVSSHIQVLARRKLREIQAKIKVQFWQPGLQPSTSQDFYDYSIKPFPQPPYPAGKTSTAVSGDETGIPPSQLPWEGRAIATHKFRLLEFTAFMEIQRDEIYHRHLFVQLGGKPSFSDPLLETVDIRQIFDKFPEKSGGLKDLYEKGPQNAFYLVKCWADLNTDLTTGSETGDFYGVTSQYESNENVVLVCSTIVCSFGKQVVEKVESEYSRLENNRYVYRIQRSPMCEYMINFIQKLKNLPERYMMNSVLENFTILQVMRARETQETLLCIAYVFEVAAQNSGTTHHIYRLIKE

In one experiment the target is T1, GST-Sna (Drosophila) (UniProt P08044).
T1 sequence: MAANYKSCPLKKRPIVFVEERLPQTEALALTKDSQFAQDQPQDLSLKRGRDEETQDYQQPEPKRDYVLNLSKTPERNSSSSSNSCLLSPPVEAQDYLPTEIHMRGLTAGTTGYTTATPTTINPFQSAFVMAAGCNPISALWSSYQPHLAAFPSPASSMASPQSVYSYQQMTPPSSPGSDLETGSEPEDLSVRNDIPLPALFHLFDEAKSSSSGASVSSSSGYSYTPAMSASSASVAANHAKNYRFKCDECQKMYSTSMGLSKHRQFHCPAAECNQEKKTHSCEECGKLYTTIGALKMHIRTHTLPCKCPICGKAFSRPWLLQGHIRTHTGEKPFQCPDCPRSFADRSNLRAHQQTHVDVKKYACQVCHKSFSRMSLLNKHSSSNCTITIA
The experiment is described as follows: pull-down; GST pull-down (Pierce GST Protein Interaction Pull-Down Kit) with bacterial cell lysates of E. coli expressing GST-Sna and Sd-His; western blot with anti-His and anti-GST. On the technique in general: Immunoblotting shows a protein as a band on a membrane.

Experiment [1] deals with T2, Flag-Yki (Yorkie), expressed in S2R+ cells (Drosophila) (UniProt Q45VV3).
T2 sequence: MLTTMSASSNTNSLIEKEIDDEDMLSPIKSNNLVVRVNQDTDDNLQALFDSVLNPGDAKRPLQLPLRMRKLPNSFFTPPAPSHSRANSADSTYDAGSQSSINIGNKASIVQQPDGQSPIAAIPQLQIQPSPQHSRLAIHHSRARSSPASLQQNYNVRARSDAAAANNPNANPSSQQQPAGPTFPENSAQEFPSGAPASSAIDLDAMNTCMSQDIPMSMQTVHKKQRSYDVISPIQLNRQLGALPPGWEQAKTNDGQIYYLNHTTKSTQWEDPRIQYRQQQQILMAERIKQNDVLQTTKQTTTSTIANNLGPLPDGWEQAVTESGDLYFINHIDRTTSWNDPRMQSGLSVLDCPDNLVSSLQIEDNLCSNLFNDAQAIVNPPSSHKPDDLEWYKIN
The experiment is described as follows: co-IP; S2R+ cells co-transfected with pUAST plasmids and Actin-GAL4; lysed in RIPA buffer with PMSF 48 h after transfection; standard co-immunoprecipitation; which protein was precipitated not given.

The target of experiment [2] is HA-Sd (Scalloped), expressed in S2R+ cells (Drosophila) (UniProt P30052). The experiment is described as above.
In experiment [3] the target is HA-Sd (Scalloped), expressed in larval wing discs (Drosophila) (UniProt P30052). The experiment is described as follows: co-IP; in vivo: third-instar larval wing discs over-expressing UAS-Myc-Sna and UAS-HA-Sd driven by Sd-GAL4; lysed in RIPA buffer with PMSF; standard co-immunoprecipitation.

These are yes or no findings as the source states them, for the method shown. Binding seen in cells or lysates may run through a third protein. Some results given as binding are weak or reduced against the parent protein; the word gives no strength. Sequences can lack the tags named with a protein.

In the case of Sd-His (from UniProt P30052 1-440), the binding result with GST-Sna (Drosophila) is given as “binds”.

B1: Myc-Sna (Snail), expressed in S2R+ cells (protein, UniProt P08044 1-390)
chain: MAANYKSCPLKKRPIVFVEERLPQTEALALTKDSQFAQDQPQDLSLKRGRDEETQDYQQPEPKRDYVLNLSKTPERNSSSSSNSCLLSPPVEAQDYLPTEIHMRGLTAGTTGYTTATPTTINPFQSAFVMAAGCNPISALWSSYQPHLAAFPSPASSMASPQSVYSYQQMTPPSSPGSDLETGSEPEDLSVRNDIPLPALFHLFDEAKSSSSGASVSSSSGYSYTPAMSASSASVAANHAKNYRFKCDECQKMYSTSMGLSKHRQFHCPAAECNQEKKTHSCEECGKLYTTIGALKMHIRTHTLPCKCPICGKAFSRPWLLQGHIRTHTGEKPFQCPDCPRSFADRSNLRAHQQTHVDVKKYACQVCHKSFSRMSLLNKHSSSNCTITIA
On to B1, for which the binding entry is “no binding” in experiment [1] and “binds” in experiment [2].

B2: Myc-Sna (Snail), expressed in larval wing discs (protein, UniProt P08044 1-390)
chain: MAANYKSCPLKKRPIVFVEERLPQTEALALTKDSQFAQDQPQDLSLKRGRDEETQDYQQPEPKRDYVLNLSKTPERNSSSSSNSCLLSPPVEAQDYLPTEIHMRGLTAGTTGYTTATPTTINPFQSAFVMAAGCNPISALWSSYQPHLAAFPSPASSMASPQSVYSYQQMTPPSSPGSDLETGSEPEDLSVRNDIPLPALFHLFDEAKSSSSGASVSSSSGYSYTPAMSASSASVAANHAKNYRFKCDECQKMYSTSMGLSKHRQFHCPAAECNQEKKTHSCEECGKLYTTIGALKMHIRTHTLPCKCPICGKAFSRPWLLQGHIRTHTGEKPFQCPDCPRSFADRSNLRAHQQTHVDVKKYACQVCHKSFSRMSLLNKHSSSNCTITIA
Regarding B2, the binding entry in experiment [3] is “binds”.
